# From patent US10464904B2, “Dextrorphan-derivatives with suppressed central nervous activity” (Heinrich-Heine-Universität Düsseldorf, priority 2015, dated 2019)
# At least one structure is not confirmed: it was looked up by name or label, or the drawing left a doubt.
# System: mouse pancreatic islets
# Assay: Insulin secretion from mouse pancreatic islets at low and high glucose
# Assay type: cell-based
# Conditions: low, non-stimulatory glucose concentration (2 mM), 10 μM test compound
structure (smiles),measurement,value
"CN1CC[C@@]23CCCC[C@@H]2[C@@H]1Cc1ccc(O)cc13 [dextrorphan, (+)-17-methyl-9α,13α,14α-morphinan-3-ol]",basal insulin secretion from pancreatic islets,to a lesser extent
